# Results as given in publication PMC4751492.
# Amino acid sequences for entries named in this document (tags omitted).
# UniProt P32120: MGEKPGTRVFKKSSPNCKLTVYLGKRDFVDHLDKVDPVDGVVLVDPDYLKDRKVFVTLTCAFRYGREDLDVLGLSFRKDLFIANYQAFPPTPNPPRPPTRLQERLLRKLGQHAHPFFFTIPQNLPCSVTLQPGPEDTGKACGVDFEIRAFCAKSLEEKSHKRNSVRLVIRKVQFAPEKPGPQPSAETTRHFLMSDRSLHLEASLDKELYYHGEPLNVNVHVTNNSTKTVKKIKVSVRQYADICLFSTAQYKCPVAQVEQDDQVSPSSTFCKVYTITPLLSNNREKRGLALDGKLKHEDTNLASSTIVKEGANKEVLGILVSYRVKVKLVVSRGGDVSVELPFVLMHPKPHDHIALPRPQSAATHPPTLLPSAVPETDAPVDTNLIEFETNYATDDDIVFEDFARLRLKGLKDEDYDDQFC
# UniProt O14733: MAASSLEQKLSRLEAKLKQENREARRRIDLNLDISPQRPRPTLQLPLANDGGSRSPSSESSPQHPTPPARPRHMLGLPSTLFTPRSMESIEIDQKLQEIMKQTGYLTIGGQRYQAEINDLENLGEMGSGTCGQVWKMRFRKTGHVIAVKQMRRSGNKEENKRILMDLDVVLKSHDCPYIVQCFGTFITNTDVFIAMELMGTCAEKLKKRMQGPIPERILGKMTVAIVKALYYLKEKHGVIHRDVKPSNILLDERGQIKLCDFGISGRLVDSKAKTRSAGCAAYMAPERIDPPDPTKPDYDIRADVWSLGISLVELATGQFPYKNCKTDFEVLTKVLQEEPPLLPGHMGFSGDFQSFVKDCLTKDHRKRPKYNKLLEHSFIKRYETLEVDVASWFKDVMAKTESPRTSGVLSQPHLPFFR
# Results are given in words; binding and its absence hold for the method and conditions named. Some results given as binding are weak or reduced against the parent protein; the word gives no strength.
# Columns and labels:
# [1] = target: MBP-arrestin-3 (full-length arrestin-3 fused to MBP) (UniProt P32120); assay: pull-down; MBP fusions (10-30 μg) immobilised on amylose resin, 1 h 4 °C; purified kinase (10 μg in 20 mM Tris/150 mM NaCl) added 2 h 4 °C; washed with 50 mM HEPES-Na pH 7.3, 150 mM NaCl; eluted with 50 mM maltose; SDS-PAGE and Western blot; both purified
# [2] = target: MBP-T1A (first 25 residues of arrestin-3 fused to MBP); assay: as above
substance,measurement,setting,value
GST-MKK7 (from UniProt O14733 1-419) (enzyme),binding,[1],binds
same,binding,[2],binds
